From publication PMC7615710
Results are given in words; binding and its absence hold for the method and conditions named. Binding seen in cells or lysates may run through a third protein. Tags and fused reporters may be left off the sequences shown.

Molecular target: T1, Halo-tagged ASPP1 CTD (887-1090) (UniProt Q96KQ4)
T1 sequence: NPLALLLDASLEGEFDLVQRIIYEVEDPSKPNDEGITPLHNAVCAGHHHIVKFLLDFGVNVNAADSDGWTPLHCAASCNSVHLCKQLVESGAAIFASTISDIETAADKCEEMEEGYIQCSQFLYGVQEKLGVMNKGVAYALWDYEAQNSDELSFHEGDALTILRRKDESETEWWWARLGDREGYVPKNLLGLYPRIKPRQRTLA
Experiment: pull-down; only the target purified

## Myc-tagged HCV [1a.1] NS5A ΔPRR(344-363) (from UniProt P26664)
  binding: no binding
